Laboratory results: PubChem BioAssay AID686943 (Drosophila RNAi Screening Center, 2013)

Aim: 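Fly genes whose loss alters ERK activation after insulin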 (primary screen)
Cell system: Drosophila S2R+ haemocyte-like cells expressing YFP-tagged ERK (Rolled)
Knock-down reagent: long dsRNA against Drosophila genes
Treatment: insulin stimulation versus unstimulated cells; dose and duration not given
Measurement: 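Antibody staining for doubly phosphorylated ERK divided by ERK-YFP signal, as plate z-scores, in insulin-treated and untreated cells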
Scale: replicate 1, z-score of dpERK with insulin: higher = more active ERK per ERK-YFP after insulin
In all, the deposit lists about 23,000 reagents; this is an unselected part of those with a known target gene and a result. 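Extra replicates exist only for a retested subset of genes; insulin dose and duration not given; both raised and lowered dpERK matter.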 Reagents against one gene are numbered here. Names joined by + are all predicted targets of the reagent. Further read-outs or replicates are left out here. Not stated in the record: the amount of reagent, the time to read-out.

| replicate 1, z-score of dpERK with insulin | gene | reagent |
| --- | --- | --- |
| 0.03 | CG9922 | 1 |
| 0.52 | CG10700 | 1 |
| -0.44 | Cyp4c3 | 1 |
| -0.82 | CG10462 | 1 |
| 1.64 | Xbp1 | 1 |
| 0.08 | Xbp1 | 2 |
| 1.07 | Zip42C.1 | 1 |
| 1.21 | CG31560 | 1 |
| 0.07 | Gr36b | 1 |
| 0.33 | CG43098 | 1 |
| 0.17 | CG15225 | 1 |
| -0.45 | lncRNA:CR32027 | 1 |
| 0.1 | CG18596 | 1 |
| -2.17 | Dso1 | 1 |
| 0.86 | CG17350 | 1 |
| 0.11 | Ms | 1 |
| 0.42 | bnk | 1 |
| -0.85 | CG7881 | 1 |
| -0.24 | CG31729 | 1 |
| -0.08 | CG31729 | 2 |

Targets listed so far whose target name begins with X or x:
| replicate 1, z-score of dpERK with insulin | gene | reagent |
| --- | --- | --- |
| 1.64 | Xbp1 | 1 |
| 0.08 | Xbp1 | 2 |

The list goes on:
| replicate 1, z-score of dpERK with insulin | gene | reagent |
| --- | --- | --- |
| 0.15 | CG10352 | 1 |
| -0.35 | CG34247 | 1 |
| 0.25 | Cyp12a4 | 1 |
| -5.72 | snRNA:U1:95Cc + CG43285 (retired record) | 1 |
| 0.91 | Mad | 1 |
| 0.65 | Acat1 | 1 |
| -1.3 | stg | 1 |
| -1.99 | IntS8 | 1 |
| 0.08 | CG33557 | 1 |
| 0.45 | CG34242 | 1 |
| 2.84 | Phf5a | 1 |
| 0.06 | CG43072 | 1 |
| -0.02 | CG13946 | 1 |
| -0.02 | CG11406 | 1 |
| 0.57 | CG11406 | 2 |
| 1.12 | CG12531 | 1 |
| -0.21 | CG31068 | 1 |
| 0.01 | dgt3 | 1 |
| -0.01 | CkIIbeta | 1 |
